Experimental data from patent US12390435B2, “Electrophiles and electrophile pro-drugs as RAD51 inhibitors” (University of Pittsburgh—Of the Commonwealth System of …, priority 2018, dated 2025).
At least one read-out could not be matched to a standard name with certainty.

System: MDA-MB-231 cells
Assay: CellTiter-Glo relative growth (luminescent ATP)
Assay type: cell-based
Settings: daily administration of olaparib in combination
Method: HEK 293T, MDA-MB-231, MDA-MB-468, Hs578T and BT-549 cells (American Type Culture Collection) were cultured at 37° C. with 5% CO2 in Dulbecco's modified Eagle's medium containing (DMEM) (Gibco) supplemented with 5% FBS (HyClone), 100 units/ml penicillin, […] streptomycin (Gibco), non-essential amino acids (Gibco) and 2 mM 1-glutamine (Gibco). Doxorubicin (Selleckchem), cisplatin (Sigma) or olaparib (Selleckchem) were dissolved in DMSO or DMF (cisplatin). […] Pure NO2-OA was diluted in DMSO and added to cells after solvation in assay media. Relative cell numbers were compared by measuring the luminescent signal generated by ATP using the CellTiter-Glo (Promega) assay. Cells were plated in a 96-well plate at 5,000 (MDA-MB-231) or 6,600 (BT549 or Hs578T) cells per well.
Data represent the mean±SEM from 3 independent experiments unless otherwise noted. A p value<0.05 was considered statistically significant. Non-linear curves were generated in GraphPad Prism 7.0 (GraphPad Software, La Jolla, CA, USA) for statistical analysis. EC50 values and standard error were calculated from three independent experiments utilizing a non-linear dose response variable slope model. […] RAD51 foci number was analyzed with ImageJ. […]
The growth of BT-549 cells was not affected. […] Growth inhibition (relative cell numbers) of MDA-MB-231 cells was determined by luminescent detection of ATP (CellTiter-Glo) (FIG. 1K).

Q: Which “effect on EC50 of olaparib / growth” value does the source give for `CCCCCCCCC(=CCCCCCCCC(=O)O)[N+](=O)[O-]` [NO2-OA, 10-nitro-octadec-9-enoic acid] here?
A: Its value is “significantly inhibited growth”.
